Test [1] concerns the target TbCIA1-V5 (Trypanosoma brucei) (UniProt Q581A6). The test can be described thus: affinity purification with mass spectrometry; V5 co-IP/MS from cryo-ground BSF cells; anti-V5 DynaBeads, 2 h at 4°C, 20 mM HEPES pH 7.4, 150 mM Na-citrate, 0.1% Triton X-100.
Test [2] concerns the target PTP-TbCIA1 (Trypanosoma brucei) (UniProt Q581A6). Nature of the test: affinity purification with mass spectrometry; tandem affinity purification (IgG Sepharose, TEV elution, anti-Protein C matrix) of in situ PTP-tagged baits from PCF lysates in TLB buffer; gel sections analysed by LC/MS; mock purification from wild type PCF as control.
Test [3] concerns the target TbCIA1-V5 (Trypanosoma brucei) (UniProt Q581A6). The test can be described thus: affinity purification with mass spectrometry; V5 co-IP/MS from cryo-ground PCF cells; anti-V5 DynaBeads, 2 h at 4°C, 20 mM HEPES pH 7.4, 150 mM Na-citrate, 0.1% Triton X-100.
For test [4], the target named is TbCIA2A-V5 (Trypanosoma brucei) (UniProt Q38DX6). The test can be described thus: affinity purification with mass spectrometry; V5 co-IP/MS from cryo-ground BSF cells; anti-V5 DynaBeads, 2 h at 4°C, 20 mM HEPES pH 7.4, 150 mM Na-citrate, 0.1% Triton X-100.
For test [5] the target is unchanged. The test can be described thus: affinity purification with mass spectrometry; V5 co-IP/MS from cryo-ground PCF cells; anti-V5 DynaBeads, 2 h at 4°C, 20 mM HEPES pH 7.4, 150 mM Na-citrate, 0.1% Triton X-100.
Test [6] addresses PTP-TbCIA1 (Trypanosoma brucei) (UniProt Q581A6). The test can be described thus: affinity purification with mass spectrometry; combined TAP/MS and V5 co-IP/MS experiments; which of them gave the hit is not given.

These are yes or no findings as the source states them, for the method shown. Binding seen in cells or lysates may run through a third protein. Here binding means that the protein was enriched with, or labelled near, the bait; the list need not be complete. For part of these data: No binding means not detected with the bait.

On to TbCIA2A (from UniProt Q38DX6), for which the binding result in test [1], in test [2] and in test [3] was “binds” each time.

For the substance TbCIA2B (from UniProt Q57YF8), the binding entry is listed as “no binding” in test [4]; “binds” in test [1]; “binds” in test [2]; “no binding” in test [5]; “binds” in test [3].

“catalytic subunit of Pol δ (TbPOLD1) (from UniProt Q585S7)”: the binding entry in test [6] is listed as “binds”.

Values taken from article PMC6211773.
